Our source for the binding signal values is publication PMC7862700.

Protein sequences, listed by entry. Tags and fused reporters are not part of them. Lines headed by an entry give the natural chain unless they say otherwise; changes in a name come on top.
UniProt O43186: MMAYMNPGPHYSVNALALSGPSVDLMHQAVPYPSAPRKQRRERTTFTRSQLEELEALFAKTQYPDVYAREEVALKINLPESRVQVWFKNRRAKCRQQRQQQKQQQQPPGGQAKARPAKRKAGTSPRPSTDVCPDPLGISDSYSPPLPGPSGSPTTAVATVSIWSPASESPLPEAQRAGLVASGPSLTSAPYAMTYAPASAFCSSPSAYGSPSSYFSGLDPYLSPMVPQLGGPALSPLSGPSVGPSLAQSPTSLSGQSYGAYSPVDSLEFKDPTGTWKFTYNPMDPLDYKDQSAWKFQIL

Holding throughout (test): DAPPL (digital affinity profiling via proximity ligation, sequencing)
Common to all, as to conditions: 10 mM Tris-HCl pH 7.5, 50 mM NaCl, 1 mM DTT, 4% glycerol, room temperature, 30 min; GST-TFs on glutathione beads, 16-mer random dsDNA library, 0.1% …; high values mean tight binding; double strand, one strand shown; scale: fold enrichment (6-mer frequency, TF over GST control)

Experiment [1] concerns the target T1, FEV (UniProt Q99581).
T1 sequence: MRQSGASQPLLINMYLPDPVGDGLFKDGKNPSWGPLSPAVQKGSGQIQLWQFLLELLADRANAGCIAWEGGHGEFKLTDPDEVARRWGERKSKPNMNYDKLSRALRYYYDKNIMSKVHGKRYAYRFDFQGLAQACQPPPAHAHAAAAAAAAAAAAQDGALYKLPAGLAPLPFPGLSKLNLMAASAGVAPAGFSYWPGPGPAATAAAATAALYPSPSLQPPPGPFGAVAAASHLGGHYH

Experiment [2] concerns the target CRX (UniProt O43186).
Experiment [3] concerns the target T2, ELF5 (UniProt Q9UKW6-2).
T2 sequence: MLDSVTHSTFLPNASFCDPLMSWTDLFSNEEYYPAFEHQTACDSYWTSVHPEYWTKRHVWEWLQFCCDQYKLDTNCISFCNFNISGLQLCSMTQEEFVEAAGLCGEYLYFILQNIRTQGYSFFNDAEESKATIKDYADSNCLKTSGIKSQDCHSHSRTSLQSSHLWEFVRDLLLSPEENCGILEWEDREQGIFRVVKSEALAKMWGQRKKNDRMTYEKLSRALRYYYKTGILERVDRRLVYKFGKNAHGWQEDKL

Only a part is listed here, and it is no random draw. At the low end of the ranking the order means little.

Consider CGAGTT, for which the figures for the binding signal in experiment [1], in experiment [2] and in experiment [3] were 0.996, 0.905 and 0.907, respectively.

As to ATACCT, the binding signal amounted to 1.12 in experiment [2] and 1.04 in experiment [3].

Take TATCCT: the binding signal was 2.28 in experiment [2] and 2.65 in experiment [3].

As for AAAAAA, the binding signal was 1.22 in experiment [2] and 1.29 in experiment [3].

For the sequence CTCAGA, the binding signal in experiment [2] is 1.27; in experiment [3], 1.03.

For GCTCAG, the binding signal in experiment [2] came out at 1.41; in experiment [3], 1.01.

For the sequence GATTAT, the binding signal in experiment [2] was found to be 4.27; in experiment [3], 1.04.

Consider TTTTCA, for which the binding signal in experiment [1] worked out at 1.17; in experiment [2] it was 1.28; in experiment [3] it was 1.25.

For the sequence TTGAAC, the figures for the binding signal in experiment [1], in experiment [2] and in experiment [3] were 0.993, 1.03 and 0.968, respectively.

On to TCTTGC, for which the binding signal in experiment [1] is 1.24; in experiment [2], 1.21.

Turning to GCCTCA, the values for the binding signal in experiment [1], in experiment [2] and in experiment [3] were 1.19, 0.991 and 1.15, respectively.
